Common to all, as to experiment: co-IP; P0 mouse brain protein extracts (Hdac2 KI/+, Hdac2 +/- and wild-type littermates) in Hunt buffer (20 mM Tris-HCl pH 8.0, 100 mM NaCl, 1 mM EDTA, 0.5% NP-40); 1 mg protein with 4 ug antibody 1 h at 4°C, protein A or G Dynabeads overnight at 4°C, three washes with Hunt buffer; immunoblot
The target of test [1] is MTA1 (NuRD) (mouse (endogenous in brain)) (UniProt Q8K4B0).
In test [2] the target is T1, Sin3A (mouse (endogenous in brain)) (UniProt Q60520).
T1 sequence: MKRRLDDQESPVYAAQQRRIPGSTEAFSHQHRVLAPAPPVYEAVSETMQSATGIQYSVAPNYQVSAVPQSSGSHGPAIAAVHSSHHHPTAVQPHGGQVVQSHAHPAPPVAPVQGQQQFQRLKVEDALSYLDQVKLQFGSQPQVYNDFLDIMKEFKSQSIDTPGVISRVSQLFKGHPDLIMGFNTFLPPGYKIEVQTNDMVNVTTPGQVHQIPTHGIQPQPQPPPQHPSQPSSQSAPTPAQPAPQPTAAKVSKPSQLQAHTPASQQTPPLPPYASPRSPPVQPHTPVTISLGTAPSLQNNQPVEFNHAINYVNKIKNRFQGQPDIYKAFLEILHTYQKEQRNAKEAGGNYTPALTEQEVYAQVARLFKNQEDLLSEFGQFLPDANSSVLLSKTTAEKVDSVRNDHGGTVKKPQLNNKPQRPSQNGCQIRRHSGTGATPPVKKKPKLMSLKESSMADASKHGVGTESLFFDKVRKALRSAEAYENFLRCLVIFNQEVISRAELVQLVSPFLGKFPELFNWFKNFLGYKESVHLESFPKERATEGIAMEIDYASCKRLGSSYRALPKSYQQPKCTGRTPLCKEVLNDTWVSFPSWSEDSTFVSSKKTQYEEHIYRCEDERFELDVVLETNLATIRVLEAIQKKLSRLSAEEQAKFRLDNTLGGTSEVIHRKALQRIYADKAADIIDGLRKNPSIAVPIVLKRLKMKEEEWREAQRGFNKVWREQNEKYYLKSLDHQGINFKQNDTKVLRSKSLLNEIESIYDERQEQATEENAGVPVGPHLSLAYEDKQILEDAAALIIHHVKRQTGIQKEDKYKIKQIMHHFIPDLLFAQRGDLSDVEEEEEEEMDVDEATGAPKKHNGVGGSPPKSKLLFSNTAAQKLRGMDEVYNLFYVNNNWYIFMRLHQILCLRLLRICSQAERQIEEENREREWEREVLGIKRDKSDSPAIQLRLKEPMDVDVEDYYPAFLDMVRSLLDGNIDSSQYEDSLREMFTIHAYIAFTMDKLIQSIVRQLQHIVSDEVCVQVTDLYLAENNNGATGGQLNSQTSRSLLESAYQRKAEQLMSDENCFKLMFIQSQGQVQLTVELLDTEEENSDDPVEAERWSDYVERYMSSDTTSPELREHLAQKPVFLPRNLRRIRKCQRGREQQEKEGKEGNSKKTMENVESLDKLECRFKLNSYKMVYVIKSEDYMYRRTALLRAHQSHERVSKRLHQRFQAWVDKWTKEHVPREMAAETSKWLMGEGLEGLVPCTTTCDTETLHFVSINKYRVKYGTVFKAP

By UniProt entry, the sequences of proteins in these tests, tags left out. Where a name states a change or a piece, a line headed by the entry shows the natural chain unless it says otherwise.
UniProt Q8K4B0: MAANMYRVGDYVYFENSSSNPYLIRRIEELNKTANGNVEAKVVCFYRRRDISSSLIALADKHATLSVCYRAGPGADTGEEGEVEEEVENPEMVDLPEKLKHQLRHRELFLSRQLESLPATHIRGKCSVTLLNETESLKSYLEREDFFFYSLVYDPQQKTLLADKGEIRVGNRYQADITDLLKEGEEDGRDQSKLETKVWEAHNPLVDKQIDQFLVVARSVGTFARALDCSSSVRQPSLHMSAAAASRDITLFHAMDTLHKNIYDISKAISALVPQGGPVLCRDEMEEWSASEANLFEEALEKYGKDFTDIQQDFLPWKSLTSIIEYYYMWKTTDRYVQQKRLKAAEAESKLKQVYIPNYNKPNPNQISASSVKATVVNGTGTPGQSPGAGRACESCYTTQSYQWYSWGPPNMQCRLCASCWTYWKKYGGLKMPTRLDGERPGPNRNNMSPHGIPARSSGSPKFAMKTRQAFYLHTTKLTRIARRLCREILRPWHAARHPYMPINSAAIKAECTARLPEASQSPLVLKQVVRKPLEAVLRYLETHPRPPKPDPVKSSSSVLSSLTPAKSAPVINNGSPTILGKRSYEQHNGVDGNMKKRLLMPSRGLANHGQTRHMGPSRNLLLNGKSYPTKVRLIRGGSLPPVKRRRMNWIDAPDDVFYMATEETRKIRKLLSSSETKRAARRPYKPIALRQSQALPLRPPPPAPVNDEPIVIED
UniProt Q8CFE3: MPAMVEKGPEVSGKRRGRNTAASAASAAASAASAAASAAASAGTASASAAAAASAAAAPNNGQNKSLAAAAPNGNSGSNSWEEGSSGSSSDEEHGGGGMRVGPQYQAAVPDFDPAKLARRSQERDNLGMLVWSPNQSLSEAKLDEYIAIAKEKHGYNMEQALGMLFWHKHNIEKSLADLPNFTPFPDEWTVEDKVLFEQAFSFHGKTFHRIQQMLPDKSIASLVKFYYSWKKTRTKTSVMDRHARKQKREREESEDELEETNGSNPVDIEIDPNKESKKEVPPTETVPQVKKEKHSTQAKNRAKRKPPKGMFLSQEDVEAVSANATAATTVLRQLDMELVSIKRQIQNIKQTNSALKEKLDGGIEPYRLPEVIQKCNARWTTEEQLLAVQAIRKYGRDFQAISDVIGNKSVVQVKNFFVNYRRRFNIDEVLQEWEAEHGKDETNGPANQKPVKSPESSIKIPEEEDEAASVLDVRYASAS
UniProt P70288: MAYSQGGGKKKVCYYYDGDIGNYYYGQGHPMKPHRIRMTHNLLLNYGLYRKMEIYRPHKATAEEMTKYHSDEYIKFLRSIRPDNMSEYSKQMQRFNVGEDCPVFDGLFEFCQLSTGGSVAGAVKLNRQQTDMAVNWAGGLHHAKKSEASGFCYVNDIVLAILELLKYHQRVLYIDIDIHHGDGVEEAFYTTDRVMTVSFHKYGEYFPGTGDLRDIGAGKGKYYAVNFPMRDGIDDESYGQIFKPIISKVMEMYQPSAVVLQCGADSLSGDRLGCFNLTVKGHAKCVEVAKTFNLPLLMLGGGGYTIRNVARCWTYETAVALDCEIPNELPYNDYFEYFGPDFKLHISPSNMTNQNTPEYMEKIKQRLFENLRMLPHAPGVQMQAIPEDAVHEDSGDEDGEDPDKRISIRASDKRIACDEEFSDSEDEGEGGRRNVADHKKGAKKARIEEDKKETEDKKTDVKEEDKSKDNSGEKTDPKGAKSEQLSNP
UniProt O09106: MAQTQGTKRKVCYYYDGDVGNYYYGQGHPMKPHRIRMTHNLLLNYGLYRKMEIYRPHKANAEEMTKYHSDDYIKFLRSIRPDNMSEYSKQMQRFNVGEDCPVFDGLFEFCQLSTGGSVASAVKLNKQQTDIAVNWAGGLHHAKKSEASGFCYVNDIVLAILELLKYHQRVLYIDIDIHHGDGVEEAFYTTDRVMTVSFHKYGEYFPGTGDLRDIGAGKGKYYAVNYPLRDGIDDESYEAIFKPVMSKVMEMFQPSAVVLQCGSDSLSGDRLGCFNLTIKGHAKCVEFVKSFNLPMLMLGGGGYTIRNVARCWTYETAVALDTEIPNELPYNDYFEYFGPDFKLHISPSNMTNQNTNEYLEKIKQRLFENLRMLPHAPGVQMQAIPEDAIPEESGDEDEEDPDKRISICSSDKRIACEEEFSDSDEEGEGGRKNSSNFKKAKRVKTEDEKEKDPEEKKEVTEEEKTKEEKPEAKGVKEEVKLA

Test [3] addresses CoREST (mouse (endogenous in brain)) (UniProt Q8CFE3).
Test [4] deals with histone deacetylase 2 (wild-type HDAC2) (mouse (endogenous in brain)) (UniProt P70288).

No constants are given. Whether binding was seen depends on the method and setting. In cells and extracts the contact can be indirect. Some results given as binding are weak or reduced against the parent protein; the word gives no strength.

Take “catalytically inactive HDAC2-H142A (from UniProt P70288 1-488) (enzyme)”: the binding entry in test [1], in test [2] and in test [3] was “binds” each time.

Regarding “histone deacetylase 1 (HDAC1) (from UniProt O09106 1-482) (enzyme)”, the binding result in test [4] is “binds”.

As for “histone deacetylase 2 (wild-type HDAC2) (from UniProt P70288 1-488) (enzyme)”, the binding result in test [1], in test [2] and in test [3] was “binds” in each case.
